Measured values taken from publication PMC11477294, “In Vitro Profiling of the Antiviral Peptide TAT-I24” (International Journal of Molecular Sciences, 2024).
Where a SMILES comes first, the peptide text is derived from it.

Test system: baculovirus expressing luciferase under the control of the CMV promoter
Assay type: cell-based
Settings: SI = CC50/IC50 in HEK293 cells
Method: A baculovirus expressing luciferase under the control of the CMV promoter has been described previously. HEK293 cells were seeded at a density of 2 × 10^4 cells/100 µL per well in 96-well plates (Sarstedt, Germany). On the next day, cells were treated with a 1:3 dilution series of peptides and, without further pre-incubation, subsequently infected with baculovirus–luc at a multiplicity of infection (MOI) of 5. Cells were lysed 24 h post-infection using 20 µL Cell Culture Lysis Reagent (Promega, Mannheim, Germany). From the lysates, 10 µL was transferred to white 96-well plates, and luciferase was recorded using a luciferase assay system and a GloMax®-Multi Detection System (Promega, Mannheim, Germany).

Row | SMILES | SI (selectivity index)
1 | CSCC[C@H](NC(=O)[C@H](Cc1ccccc1)NC(=O)[C@H](CCCNC(=N)N)NC(=O)[C@H](C)NC(=O)[C@H](Cc1ccc(O)cc1)NC(=O)[C@H](Cc1ccccc1)NC(=O)[C@H](C)NC(=O)[C@H](CC(C)C)NC(=O)[C@H](C)NC(=O)[C@H](CCC(N)=O)NC(=O)[C@@H]1CCCN1C(=O)[C@@H]1CCCN1C(=O)[C@H](CCCNC(=N)N)NC(=O)[C@H](CCCNC(=N)N)NC(=O)[C@H](CCCNC(=N)N)NC(=O)[C@H](CCC(N)=O)NC(=O)[C@H](CCCNC(=N)N)NC(=O)[C@H](CCCNC(=N)N)NC(=O)[C@H](CCCCN)NC(=O)[C@H](CCCCN)NC(=O)[C@H](CCCNC(=N)N)NC(=O)CN)C(=O)O [C14A, C20R, C22M] (H-GRKKRRQRRRPPQALAFYARFM-OH) | 109
2 | CC(C)C[C@H](NC(=O)[C@H](CS)NC(=O)[C@H](CCC(N)=O)NC(=O)[C@@H]1CCCN1C(=O)[C@@H]1CCCN1C(=O)[C@H](CCCNC(=N)N)NC(=O)[C@H](CCCNC(=N)N)NC(=O)[C@H](CCCNC(=N)N)NC(=O)[C@H](CCC(N)=O)NC(=O)[C@H](CCCNC(=N)N)NC(=O)[C@H](CCCNC(=N)N)NC(=O)[C@H](CCCCN)NC(=O)[C@H](CCCCN)NC(=O)[C@H](CCCNC(=N)N)NC(=O)CN)C(=O)N[C@@H](C)C(=O)N[C@@H](Cc1ccccc1)C(=O)N[C@@H](Cc1ccc(O)cc1)C(=O)N[C@@H](C)C(=O)N[C@@H](CS)C(=O)N[C@@H](Cc1ccccc1)C(=O)N[C@@H](CS)C(=O)O [TAT-I24] (H-GRKKRRQRRRPPQCLAFYACFC-OH) | 2480
